According to patent US20220251074A1, “HERBICIDAL AMIDES” (BASF SE, priority 2019, published 2022):
Some of these results come from one statement about several compounds together.

How the values were obtained:
Experiment in all cases: greenhouse post-emergence herbicidal test
Conditions in all cases: post-emergence method, application rate 500 g/ha, scale from 0 to 100
AMARE = assay type: in vivo, Amaranthus retroflexus
Description: (§1) The culture containers used were plastic flowerpots containing loamy sand with approximately 3.0% of humus as the substrate. The seeds of the test plants were sown separately for each species.
(§2) For the post-emergence treatment, the test plants were first grown to a height of 3 to 15 cm, depending on the plant habit, and only then treated with the active ingredients which had been suspended or emulsified in water. For this purpose, the test plants were either sown directly and grown in the same containers, or they were first grown separately as seedlings and transplanted into the test containers a few days prior to treatment.
(§3) Depending on the species, the plants were kept at 10-25° C. or 20-35° C., respectively. The test period extended over 2 to 4 weeks. During this time, the plants were tended, and their response to the individual treatments was evaluated.
(§4) Evaluation was carried out using a scale from 0 to 100. 100 means no emergence of the plants, or complete destruction of at least the aerial moieties, and 0 means no damage, or normal course of growth. A good herbicidal activity is given at values of at least 80 and a very good herbicidal activity is given at values of at least 90.
(§5) The plants used in the greenhouse experiments were of the following species: […]

SETVI = assay type: in vivo, Setaria viridis
Description: as §1, §2, §3, §4, §5

ECHCG = assay type: in vivo, Echinocloa crus-galli
Description: as §1, §2, §3, §4, §5

ABUTH = assay type: in vivo, Abutilon theophrasti
Description: as §1, §2, §3, §4, §5

In the case of `C/C(=C\C(=O)NCC(F)(F)F)C[C@@H]1OC[C@H](C[C@@H]2O[C@H]2[C@@H](C)[C@H](C)O)[C@@H](O)[C@H]1O` [compound 3], the “herbicidal activity against AMARE” value (AMARE) is reported as “very good herbicidal activity (a very good herbicidal activity is given at values of at least 90)”, the “herbicidal activity against SETVI” value (SETVI) is reported as “very good herbicidal activity (a very good herbicidal activity is given at values of at least 90)” and the “herbicidal activity against ECHCG” value (ECHCG) is reported as “very good herbicidal activity (a very good herbicidal activity is given at values of at least 90)”. For the same compound, the “herbicidal activity against ABUTH” value (ABUTH) was “very good herbicidal activity (a very good herbicidal activity is given at values of at least 90)”.
